Data taken from PubChem BioAssay AID248 (DTP/NCI, 2004).
The list shows only some results of the screen, not a fair sample: its compounds were picked by chemical class. Other doses and runs of a compound may be missing. T/C is the treated group as % of the vehicle group. Where survival is the endpoint, the PubChem record calls one and a half times the control and up active, and a quarter to a half above the control has no call in these data; cut-offs in other NCI protocols can differ. Schedule codes are those of the source, read here as Q, the interval in days (D) or hours (H), X, the number of doses. Some T/C values carry the count of animals alive at the toxicity check (mostly the fifth day); where neither a count nor a note follows, no animal had died by that day. Some entries were tested several times; the results are listed from low to high.

Tested on: L1210 leukemia ip in BDF1 mice, survival T/C
Experiment: NCI In Vivo Anticancer Drug Screen. Data for tumor model L1210 Leukemia (intraperitoneal) in B6D2F1 (BDF1) mice
Details: T/C endpoint: median survival time, vehicle: saline, higher T/C = longer survival

With `COc1ccc(O)c2c(=O)c3c(OC)cc4c(c3oc12)[C@@H]1C=CO[C@@H]1O4` as the compound, how does the T/C (dose: 4.0 mg/kg/injection, schedule: Q03HX016 (ip)) read?
Its T/C is 117 % of control.

What about the T/C (dose: 4.0 mg/kg/injection, schedule: Q03HX024 (ip)) of the same compound?
Its T/C is 137 % of control.

What about the T/C (dose: 8.0 mg/kg/injection, schedule: Q01DX009 (ip), evaluated on day 30) of the same compound?
Its T/C is 126 and 150 % of control.

What about the T/C (dose: 8.0 mg/kg/injection, schedule: Q01DX009 (ip), evaluated on day 60) of the same compound?
The T/C was 130 % of control.

What about the T/C (dose: 8.0 mg/kg/injection, schedule: Q01DX009 (sc)) of the same compound?
The T/C was 111 % of control [9 of 10 alive].

And the T/C (dose: 8.0 mg/kg/injection, schedule: Q03HX008 (ip))?
The T/C was 121 % of control.

What about the T/C (dose: 8.0 mg/kg/injection, schedule: Q03HX016 (ip)) of the same compound?
The T/C was 133 % of control.

What about the T/C (dose: 8.0 mg/kg/injection, schedule: Q03HX024 (ip)) of the same compound?
Its T/C is 148 % of control.

And the T/C (dose: 16.0 mg/kg/injection, schedule: Q01DX009 (ip), evaluated on day 30)?
The T/C was 152 and 164 % of control.

What about the T/C (dose: 16.0 mg/kg/injection, schedule: Q01DX009 (ip), evaluated on day 60) of the same compound?
The T/C was 137 % of control.

And the T/C (dose: 16.0 mg/kg/injection, schedule: Q01DX009 (oral))?
Its T/C is 124 % of control.

And the T/C (dose: 16.0 mg/kg/injection, schedule: Q01DX009 (sc))?
The T/C was 107 % of control.

And the T/C (dose: 16.0 mg/kg/injection, schedule: Q03HX008 (ip))?
Its T/C is 124 % of control.

And the T/C (dose: 16.0 mg/kg/injection, schedule: Q03HX016 (ip))?
The T/C was 133 % of control.

And the T/C (dose: 16.0 mg/kg/injection, schedule: Q03HX024 (ip))?
The T/C was 144 % of control.

What about the T/C (dose: 16.0 mg/kg/injection, schedule: Q04DX003 (ip)) of the same compound?
The T/C was 103 % of control.

What about the T/C (dose: 32.0 mg/kg/injection, schedule: Q01DX001 (ip)) of the same compound?
The T/C was 114 % of control.

What about the T/C (dose: 32.0 mg/kg/injection, schedule: Q01DX001 (oral)) of the same compound?
Its T/C is 108 % of control.

And the T/C (dose: 32.0 mg/kg/injection, schedule: Q01DX001 (sc))?
Its T/C is 101 % of control.

And the T/C (dose: 32.0 mg/kg/injection, schedule: Q01DX009 (ip), evaluated on day 30)?
The T/C was 136 and 192 % of control.

What about the T/C (dose: 32.0 mg/kg/injection, schedule: Q01DX009 (ip), evaluated on day 60) of the same compound?
The T/C was 145 % of control.

What about the T/C (dose: 32.0 mg/kg/injection, schedule: Q01DX009 (oral)) of the same compound?
The T/C was 123 % of control.

What about the T/C (dose: 32.0 mg/kg/injection, schedule: Q01DX009 (sc)) of the same compound?
Its T/C is 122 % of control [9 of 10 alive].

And the T/C (dose: 32.0 mg/kg/injection, schedule: Q03HX008 (ip))?
Its T/C is 143 % of control.

What about the T/C (dose: 32.0 mg/kg/injection, schedule: Q03HX016 (ip)) of the same compound?
The T/C was 158 % of control.

What about the T/C (dose: 32.0 mg/kg/injection, schedule: Q03HX024 (ip)) of the same compound?
The T/C was 108 % of control [9 of 10 alive].

And the T/C (dose: 32.0 mg/kg/injection, schedule: Q04DX003 (ip))?
The T/C was 121 % of control.

And the T/C (dose: 32.0 mg/kg/injection, schedule: Q08DX002 (ip))?
Its T/C is 108 % of control.

What about the T/C (dose: 64.0 mg/kg/injection, schedule: Q01DX001 (ip)) of the same compound?
Its T/C is 124 % of control.

And the T/C (dose: 64.0 mg/kg/injection, schedule: Q01DX001 (oral))?
Its T/C is 105 % of control.

And the T/C (dose: 64.0 mg/kg/injection, schedule: Q01DX001 (sc))?
The T/C was 109 % of control.

What about the T/C (dose: 64.0 mg/kg/injection, schedule: Q01DX009 (ip), evaluated on day 30) of the same compound?
The T/C was 152 and 157 % of control [5 of 6 alive].

What about the T/C (dose: 64.0 mg/kg/injection, schedule: Q01DX009 (ip), evaluated on day 60) of the same compound?
The T/C was 121 % of control.

And the T/C (dose: 64.0 mg/kg/injection, schedule: Q01DX009 (oral))?
Its T/C is 131 % of control.

What about the T/C (dose: 64.0 mg/kg/injection, schedule: Q01DX009 (sc)) of the same compound?
The T/C was 121 % of control.

And the T/C (dose: 64.0 mg/kg/injection, schedule: Q03HX008 (ip))?
The T/C was 131 % of control [9 of 10 alive].

And the T/C (dose: 64.0 mg/kg/injection, schedule: Q03HX016 (ip))?
Its T/C is 98 % of control [9 of 10 alive].

And the T/C (dose: 64.0 mg/kg/injection, schedule: Q04DX003 (ip))?
Its T/C is 126 % of control.

And the T/C (dose: 64.0 mg/kg/injection, schedule: Q08DX002 (ip))?
The T/C was 114 % of control.

And the T/C (dose: 128.0 mg/kg/injection, schedule: Q01DX001 (ip))?
Its T/C is 136 % of control.

What about the T/C (dose: 128.0 mg/kg/injection, schedule: Q01DX001 (oral)) of the same compound?
Its T/C is 104 % of control.

What about the T/C (dose: 128.0 mg/kg/injection, schedule: Q01DX001 (sc)) of the same compound?
The T/C was 119 % of control.

And the T/C (dose: 128.0 mg/kg/injection, schedule: Q01DX009 (oral))?
Its T/C is 149 % of control [9 of 10 alive].

What about the T/C (dose: 128.0 mg/kg/injection, schedule: Q01DX009 (sc)) of the same compound?
Its T/C is 143 % of control.

What about the T/C (dose: 128.0 mg/kg/injection, schedule: Q04DX003 (ip)) of the same compound?
Its T/C is 136 % of control.

What about the T/C (dose: 128.0 mg/kg/injection, schedule: Q08DX002 (ip)) of the same compound?
The T/C was 122 % of control.

And the T/C (dose: 256.0 mg/kg/injection, schedule: Q01DX001 (ip))?
Its T/C is 147 % of control.

What about the T/C (dose: 256.0 mg/kg/injection, schedule: Q01DX001 (oral)) of the same compound?
Its T/C is 103 % of control.

What about the T/C (dose: 256.0 mg/kg/injection, schedule: Q01DX001 (sc)) of the same compound?
Its T/C is 108 % of control.

What about the T/C (dose: 256.0 mg/kg/injection, schedule: Q01DX009 (oral)) of the same compound?
Its T/C is 139 % of control.

What about the T/C (dose: 256.0 mg/kg/injection, schedule: Q04DX003 (ip)) of the same compound?
Its T/C is 114 % of control.

And the T/C (dose: 256.0 mg/kg/injection, schedule: Q08DX002 (ip))?
Its T/C is 147 % of control.

What about the T/C (dose: 512.0 mg/kg/injection, schedule: Q01DX001 (ip)) of the same compound?
Its T/C is 158 % of control [9 of 10 alive].

And the T/C (dose: 512.0 mg/kg/injection, schedule: Q01DX001 (oral))?
The T/C was 110 % of control.

And the T/C (dose: 512.0 mg/kg/injection, schedule: Q01DX001 (sc))?
The T/C was 104 % of control.

What about the T/C (dose: 512.0 mg/kg/injection, schedule: Q08DX002 (ip)) of the same compound?
The T/C was 144 % of control.
